Data reported in PMC9681113.

T1: GFP-tagged wild-type MAB21L1 (human) (UniProt Q13394)
T1 sequence: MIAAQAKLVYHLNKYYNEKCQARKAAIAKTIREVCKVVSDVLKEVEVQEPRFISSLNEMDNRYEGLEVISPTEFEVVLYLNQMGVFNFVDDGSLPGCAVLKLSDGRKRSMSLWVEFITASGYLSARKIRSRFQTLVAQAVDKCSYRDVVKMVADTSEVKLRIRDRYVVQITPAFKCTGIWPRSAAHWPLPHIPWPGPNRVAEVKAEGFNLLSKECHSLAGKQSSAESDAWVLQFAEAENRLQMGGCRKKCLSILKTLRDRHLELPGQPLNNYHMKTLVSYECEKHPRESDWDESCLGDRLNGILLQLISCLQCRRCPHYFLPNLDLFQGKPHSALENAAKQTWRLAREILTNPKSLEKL

T2: GFP-tagged MAB21L1 Arg51Leu (human) (UniProt Q13394)
T2 sequence: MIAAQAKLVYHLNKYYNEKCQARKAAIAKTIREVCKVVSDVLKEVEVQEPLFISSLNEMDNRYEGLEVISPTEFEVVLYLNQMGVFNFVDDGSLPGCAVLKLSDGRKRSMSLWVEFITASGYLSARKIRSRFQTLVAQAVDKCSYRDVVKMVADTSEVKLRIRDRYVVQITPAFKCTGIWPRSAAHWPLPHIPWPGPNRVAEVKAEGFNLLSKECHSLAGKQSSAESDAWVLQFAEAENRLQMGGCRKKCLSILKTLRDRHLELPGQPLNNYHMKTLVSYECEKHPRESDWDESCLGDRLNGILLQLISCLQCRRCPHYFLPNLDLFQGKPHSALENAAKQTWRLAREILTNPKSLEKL

T3: GFP-tagged MAB21L1 Arg51Gln (human) (UniProt Q13394)
T3 sequence: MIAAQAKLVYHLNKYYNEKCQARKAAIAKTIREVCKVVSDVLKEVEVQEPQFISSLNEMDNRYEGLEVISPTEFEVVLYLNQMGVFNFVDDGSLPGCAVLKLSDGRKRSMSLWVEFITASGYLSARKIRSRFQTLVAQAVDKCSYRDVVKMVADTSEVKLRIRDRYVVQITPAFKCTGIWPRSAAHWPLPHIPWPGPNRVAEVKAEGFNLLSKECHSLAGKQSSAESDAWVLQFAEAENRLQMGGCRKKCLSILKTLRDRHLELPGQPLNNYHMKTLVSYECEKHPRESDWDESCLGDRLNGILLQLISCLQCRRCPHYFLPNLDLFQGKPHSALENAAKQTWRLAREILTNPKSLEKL


What was measured:
Assay in all cases: affinity purification with mass spectrometry; GFP pulldown with GFP Tag Immunomagnetic Beads from lysates of HEK-293 Flp-In T-REx cells expressing EGFP, EGFP-MAB21L1 or mutant EGFP-MAB21L1 after 12 hrs of 1 μg/ml tetracycline; three biological replicates; MaxQuant
[1] = molecular target: T1, GFP-tagged wild-type MAB21L1 (human)
[2] = molecular target: T2, GFP-tagged MAB21L1 Arg51Leu (human)
[3] = molecular target: T3, GFP-tagged MAB21L1 Arg51Gln (human)

| binding [1] | binding [2] | binding [3] | Binder |
| --- | --- | --- | --- |
| binds | binds | binds | CDC42EP1 (protein, UniProt Q00587 1-391) MPGPQGGRGAATMSLGKLSPVGWVSSSQGKRRLTADMISHPLGDFRHTMHVGRGGDVFGDTSFLSNHGGSSGSTHRSPRSFLAKKLQLVRRVGAPPRRMASPPAPSPAPPAISPIIKNAISLPQLNQAAYDSLVVGKLSFDSSPTSSTDGHSSYGLDSGFCTISRLPRSEKPHDRDRDGSFPSEPGLRRSDSLLSFRLDLDLGPSLLSELLGVMSLPEAPAAETPAPAANPPAPTANPTGPAANPPATTANPPAPAANPSAPAATPTGPAANPPAPAASSTPHGHCPNGVTAGLGPVAEVKSSPVGGGPRGPAGPALGRHWGAGWDGGHHYPEMDARQERVEVLPQARASWESLDEEWRAPQAGSRTPVPSTVQANTFEFADAEEDDEVKV |
| binds | binds | binds | MEIS1 (protein, UniProt O00470 1-390) MAQRYDDLPHYGGMDGVGIPSTMYGDPHAARSMQPVHHLNHGPPLHSHQYPHTAHTNAMAPSMGSSVNDALKRDKDAIYGHPLFPLLALIFEKCELATCTPREPGVAGGDVCSSESFNEDIAVFAKQIRAEKPLFSSNPELDNLMIQAIQVLRFHLLELEKVHELCDNFCHRYISCLKGKMPIDLVIDDREGGSKSDSEDITRSANLTDQPSWNRDHDDTASTRSGGTPGPSSGGHTSHSGDNSSEQGDGLDNSVASPSTGDDDDPDKDKKRHKKRGIFPKVATNIMRAWLFQHLTHPYPSEEQKKQLAQDTGLTILQVNNWFINARRRIVQPMIDQSNRAVSQGTPYNPDGQPMGGFVMDGQQHMGIRAPGPMSGMGMNMGMEGQWHYM |
| binds | binds | binds | PPP5C (protein, UniProt P53041 1-499) MAMAEGERTECAEPPRDEPPADGALKRAEELKTQANDYFKAKDYENAIKFYSQAIELNPSNAIYYGNRSLAYLRTECYGYALGDATRAIELDKKYIKGYYRRAASNMALGKFRAALRDYETVVKVKPHDKDAKMKYQECNKIVKQKAFERAIAGDEHKRSVVDSLDIESMTIEDEYSGPKLEDGKVTISFMKELMQWYKDQKKLHRKCAYQILVQVKEVLSKLSTLVETTLKETEKITVCGDTHGQFYDLLNIFELNGLPSETNPYIFNGDFVDRGSFSVEVILTLFGFKLLYPDHFHLLRGNHETDNMNQIYGFEGEVKAKYTAQMYELFSEVFEWLPLAQCINGKVLIMHGGLFSEDGVTLDDIRKIERNRQPPDSGPMCDLLWSDPQPQNGRSISKRGVSCQFGPDVTKAFLEENNLDYIIRSHEVKAEGYEVAHGGRCVTVFSAPNYCDQMGNKASYIHLQGSDLRPQFHQFTAVPHPNVKPMAYANTLLQLGMM |
| binds | binds | binds | GARS (protein, UniProt P41250 37-739) SAASCPPISLPAAASRSSMDGAGAEEVLAPLRLAVRQQGDLVRKLKEDKAPQVDVDKAVAELKARKRVLEAKELALQPKDDIVDRAKMEDTLKRRFFYDQAFAIYGGVSGLYDFGPVGCALKNNIIQTWRQHFIQEEQILEIDCTMLTPEPVLKTSGHVDKFADFMVKDVKNGECFRADHLLKAHLQKLMSDKKCSVEKKSEMESVLAQLDNYGQQELADLFVNYNVKSPITGNDLSPPVSFNLMFKTFIGPGGNMPGYLRPETAQGIFLNFKRLLEFNQGKLPFAAAQIGNSFRNEISPRSGLIRVREFTMAEIEHFVDPSEKDHPKFQNVADLHLYLYSAKAQVSGQSARKMRLGDAVEQGVINNTVLGYFIGRIYLYLTKVGISPDKLRFRQHMENEMAHYACDCWDAESKTSYGWIEIVGCADRSCYDLSCHARATKVPLVAEKPLKEPKTVNVVQFEPSKGAIGKAYKKDAKLVMEYLAICDECYITEMEMLLNEKGEFTIETEGKTFQLTKDMINVKRFQKTLYVEEVVPNVIEPSFGLGRIMYTVFEHTFHVREGDEQRTFFSFPAVVAPFKCSVLPLSQNQEFMPFVKELSEALTRHGVSHKVDDSSGSIGRRYARTDEIGVAFGVTIDFDTVNKTPHTATLRDRDSMRQIRAEISELPSIVQDLANGNITWADVEARYPLFEGQETGKKETIEE |
| binds | binds | binds | UBA2 (protein, UniProt Q9UBT2 1-640) MALSRGLPRELAEAVAGGRVLVVGAGGIGCELLKNLVLTGFSHIDLIDLDTIDVSNLNRQFLFQKKHVGRSKAQVAKESVLQFYPKANIVAYHDSIMNPDYNVEFFRQFILVMNALDNRAARNHVNRMCLAADVPLIESGTAGYLGQVTTIKKGVTECYECHPKPTQRTFPGCTIRNTPSEPIHCIVWAKYLFNQLFGEEDADQEVSPDRADPEAAWEPTEAEARARASNEDGDIKRISTKEWAKSTGYDPVKLFTKLFKDDIRYLLTMDKLWRKRKPPVPLDWAEVQSQGEETNASDQQNEPQLGLKDQQVLDVKSYARLFSKSIETLRVHLAEKGDGAELIWDKDDPSAMDFVTSAANLRMHIFSMNMKSRFDIKSMAGNIIPAIATTNAVIAGLIVLEGLKILSGKIDQCRTIFLNKQPNPRKKLLVPCALDPPNPNCYVCASKPEVTVRLNVHKVTVLTLQDKIVKEKFAMVAPDVQIEDGKGTILISSEEGETEANNHKKLSEFGIRNGSRLQADDFLQDYTLLINILHSEDLGKDVEFEVVGDAPEKVGPKQAEDAAKSITNGSDDGAQPSTSTAQEQDDVLIVDSDEEDSSNNADVSEEERSRKRKLDEKENLSAKRSRIEQKEELDDVIALD |
| binds | binds | binds | PRPF4 (protein, UniProt O43172 1-522) MASSRASSTQATKTKAPDDLVAPVVKKPHIYYGSLEEKERERLAKGESGILGKDGLKAGIEAGNINITSGEVFEIEEHISERQAEVLAEFERRKRARQINVSTDDSEVKACLRALGEPITLFGEGPAERRERLRNILSVVGTDALKKTKKDDEKSKKSKEEYQQTWYHEGPNSLKVARLWIANYSLPRAMKRLEEARLHKEIPETTRTSQMQELHKSLRSLNNFCSQIGDDRPISYCHFSPNSKMLATACWSGLCKLWSVPDCNLLHTLRGHNTNVGAIVFHPKSTVSLDPKDVNLASCAADGSVKLWSLDSDEPVADIEGHTVRVARVMWHPSGRFLGTTCYDRSWRLWDLEAQEEILHQEGHSMGVYDIAFHQDGSLAGTGGLDAFGRVWDLRTGRCIMFLEGHLKEIYGINFSPNGYHIATGSGDNTCKVWDLRQRRCVYTIPAHQNLVTGVKFEPIHGNFLLTGAYDNTAKIWTHPGWSPLKTLAGHEGKVMGLDISSDGQLIATCSYDRTFKLWMAE |
| binds | binds | binds | RLIM (protein, UniProt Q9NVW2 1-624) MENSDSNDKGSGDQSAAQRRSQMDRLDREEAFYQFVNNLSEEDYRLMRDNNLLGTPGESTEEELLRRLQQIKEGPPPQNSDENRGGDSSDDVSNGDSIIDWLNSVRQTGNTTRSGQRGNQSWRAVSRTNPNSGDFRFSLEINVNRNNGSQNSENENEPSARRSSGENVENNSQRQVENPRSESTSARPSRSERNSTEALTEVPPTRGQRRARSRSPDHRRTRARAERSRSPLHPMSEIPRRSHHSISSQTFEHPLVNETEGSSRTRHHVTLRQQISGPELLSRGLFAASGTRNASQGAGSSDTAASGESTGSGQRPPTIVLDLQVRRVRPGEYRQRDSIASRTRSRSQTPNNTVTYESERGGFRRTFSRSERAGVRTYVSTIRIPIRRILNTGLSETTSVAIQTMLRQIMTGFGELSYFMYSDSDSEPTGSVSNRNMERAESRSGRGGSGGGSSSGSSSSSSSSSSSSSSSSSSSSPSSSSGGESSETSSDLFEGSNEGSSSSGSSGARREGRHRAPVTFDESGSLPFLSLAQFFLLNEDDDDQPRGLTKEQIDNLAMRSFGENDALKTCSVCITEYTEGNKLRKLPCSHEYHVHCIDRWLSENSTCPICRRAVLASGNRESVV |

Results are given in words; binding and its absence hold for the method and conditions named. Binding seen in cells or lysates may run through a third protein. Here binding means that the protein was enriched with, or labelled near, the bait; the list need not be complete. Sequences can lack the tags named with a protein.
